The text below walks through data of US20220106398A1.

No constants are given. Whether binding was seen depends on the method and setting. Binding calls can cover weak binding; strength is not graded here.

The target in the assay is cynomolgus monkey His6-GITR (cynomolgus monkey). Description: ELISA, scFv periplasmic extract on coated His6-GITR. On the technique in general: An ELISA detects its analyte on a solid surface through an enzyme-linked reagent.

B1: GITR-Mab-5 scFv (scFv, V domains shown)
VH: EVQLLESGGGLVQPGGSLRLSCAASGFTFDAYAMHWVRQAPGKGLEWVSAIGTGGDTYYADSVKGRFTISRDNSKNTLYLQMNSLRAEDTAVYYCARDLYGSGSPQYYYYYGMDVWGQGTTVTVSS
VL: DIQMTQSPSSLSASVGDRVTITCRASQGIKNDLGWYQQKPGKAPKLLIYAASSLQSGVPSRFSGSGSGTDFTLTISSLQPEDFATYYCQQSYSVPFTFGQGTKVEIK
As for B1, the binding result is “binds”.

B2: GITR-Mab-16 scFv (scFv, V domains shown)
VH: QVQLVQSGAEVKKPGASVKVSCKASGGTLSSYAISWVRQAPGQGLEWMGWIDPNSGGTNYAQKFQGRVTMTRDTSTSTVYMELSSLRSEDTAVYYCARQGLLWFGESGSIYYYYGMDVWGQGTTVTVSS
VL: DIQMTQSPSSLSASVGDRVTITCRASRSISNYLNWYQQKPGKAPKLLIYGASSLQSGVPSRFSGSGSGTDFTLTISSLQPEDFATYYCQQSYSTLVTFGQGTKVEIK
With B2, the binding entry is “binds”.

B3: GITR-Mab-23 scFv (scFv, V domains shown)
VH: EVQLLESGGGLVQPGGSLRLSCAASGFPFSTYAIHWVRQAPGKGLEWVSAISGSGGSTYYADSVKGRFTISRDNSKNTLYLQMNSLRAEDTAVYYCAGPDWYFDLWGRGTLVTVSS
VL: DIQMTQSPSSLSASVGDRVTITCRASQAISNSLAWYQQKPGKAPKLLIYAASTLQRGVPSRFSGSGSGTDFTLTISSLQPEDFATYYCQQYYSTPYTFGQGTKLEIK
With B3, the binding entry is given as “binds”.

B4: GITR-Mab-12 scFv (scFv, V domains shown)
VH: QVQLVQSGAEVKKPGASVKVSCKASGYTFTSYAINWVRQAPGQGLEWMGILSPSGGGTSYAPKFQGRVTMTRDTSTSTVYMELSSLRSEDTAVYYCARGPWYFDLWGRGTLVTVSS
VL: DIQMTQSPSSLSASVGDRVTITCRASQGISNSLAWYQQKPGKAPKLLIYAASSLQSGVPSRFSGSGSGTDFTLTISSLQPEDFATYYCQQSYSTPFTFGPGTKVDIK
For the molecule B4, the binding result was “binds”.

B5: GITR-Mab-24 scFv (scFv, V domains shown)
VH: QVQLVQSGAEVKKPGASVKVSCKASGGTFNNYAINWVRQAPGQGLEWMGTINPRDGDTTYAQKFQGRVTMTRDTSTSTVYMELSSLRSEDTAVYYCARVGYYGSGSYYSYYGMDVWGQGTTVTVSS
VL: DIQMTQSPSSLSASVGDRVTITCRASQNITNWLAWYQQKPGKAPKLLIYAASSLQSGVPSRFSGSGSGTDFTLTISSLQPEDFATYYCQQAYSFPWTFGQGTKVEIK
B5: the binding result is recorded as “binds”.

B6: GITR-Mab-19 scFv (scFv, V domains shown)
VH: QVQLVQSGAEVKKPGASVKVSCKASGYTFTSYDINWVRQAPGQGLEWVGIINPSGGSTSYAQKFQGRVTMTRDTSTSTVYMELSSLRSEDTAVYYCARASSGGYYYYYGMDVWGQGTTVTVSS
VL: DIQMTQSPSSLSASVGDRVTITCRASQDIVNWLAWYQQKPGKAPKLLIYAASSLQSGVPSRFSGSGSGTDFTLTISSLQPEDFATYYCQQYYSYPLTFGQGTRLEIK
As for B6, the binding result is recorded as “binds”.

B7: GITR-Mab-22 scFv (scFv, V domains shown)
VH: QVQLVQSGAEVKKPGASVKVSCKASGGRFSTYALSWVRQAPGQGLEWMGIINPTDGSTTYAQKFQGRVTMTRDTSTSTVYMELSSLRSEDTAVYYCARDVYSSSWYSDYWGQGTLVTVSS
VL: DIQMTQSPSSLSASVGDRVTITCRASQSISNWLAWYQQKPGKAPKLLIYAASTLQSGVPSRFSGSGSGTDFTLTISSLQPEDFATYYCQQSYSVPFTFGPGTKVDIK
Consider B7, for which the binding entry is recorded as “binds”.

B8: GITR-Mab-7 scFv (scFv, V domains shown)
VH: QVQLVQSGAEVKKPGASVKVSCKASGGTSSTYAVTWVRQAPGQGLEWMGVINPNDGSTTYAQNFQGRVTMTRDTSTSTVYMELSSLRSEDTAVYYCARWTPLFGVVIPDYYYYGMDVWGQGTLVTVSS
VL: DIQMTQSPSSLSASVGDRVTITCQASQDISNYLNWYQQKPGKAPKLLIYAASSLQSGVPSRFSGSGSGTDFTLTISSLQPEDFATYYCQQSYSTPPTFGQGTRLEIK
In the case of B8, the binding result is “binds”.

B9: GITR-Mab-18 scFv (scFv, V domains shown)
VH: EVQLLESGGGLVKPGGSLRLSCAASGFTFSSYWMSWVRQAPGKGLEWVSGISWNGGTVGYADSVKGRFTISRDDSKNTLYLQMNSLKTEDTAVYYCAKLGIAVKSHWYFDLWGRGTLVTVSS
VL: DIQMTQSPSSLSASVGDRVTITCRASESISTWLAWYQQKPGKAPKLLIYAASSLQSGVPSRFSGSGSGTDFTLTISSLQPEDFATYYCQQSYTLPLTFGGGTKLEIK
As to B9, the binding entry was “binds”.

B10: GITR-Mab-10 scFv (scFv, V domains shown)
VH: QVQLVQSGAEVKKPGASVKVSCKASGYTFTSNYMHWVRQAPGQGLEWMGWMNPNSGNTAYAQKFQGRVTMTRDTSTSTVYMELSSLRSEDTAVYYCARGRGGQLLFDYWGQGTLVTVSS
VL: DIQMTQSPSSLSASVGDRVTITCRASQGISSWLAWYQQKPGKAPKLLIYAASTLQSGVPSRFSGSGSGTDFTLTISSLQPEDFATYYCQQYNSYSTFGQGTKVEIK
For B10, the binding entry was “binds”.

B11: GITR-Mab-1 scFv (scFv, V domains shown)
VH: QVQLVQSGAEVKKPGASVKVSCKASGYTFTNYHLHWVRQAPGQGLEWMGMINPNDGSTTYAQKFQGRVTMTRDTSTSTVYMELSSLRSEDTAVYYCARSTYYYDSSGYYYYYYGMDVWGQGTTVTVSS
VL: EIVMTQSPATLSVSPGERATLSCRASQSVYSNYLAWYQQKPGQAPRLLIYGASTRATGIPARFSGSGSGTEFTLTISSLQSEDFAVYYCQQYHSYPLTFGGGTKVEIK
For B11, the binding result is “binds”.

B12: GITR-Mab-3 scFv (scFv, V domains shown)
VH: QVQLVQSGAEVKKPGASVKVSCKASGYTFTSYDINWVRQAPGQGLEWMGWISGYNGNTNYAQKFQGRVTMTRDTSTSTVYMELSSLRSEDTAVYYCARSHEYYYYYGMDVWGQGTLVTVSS
VL: EIVMTQSPATLSVSPGERATLSCRASQSVSSSYLAWYQQKPGQAPRLLIYGASTRATGIPARFSGSGSGTEFTLTISSLQSEDFAVYYCQQYYTTPFTFGPGTKVDIK
Regarding B12, the binding result is on record as “binds”.

B13: GITR-Mab-9 scFv (scFv, V domains shown)
VH: QVQLVQSGAEVKKPGASVKVSCKASGHTFTSQYMHWVRQAPGQGLEWVGVINPNDGSTSYAQKFQGRVTMTRDTSTSTVYMELSSLRSEDTAVYYCARDGAYYYDSSGYYRSSNFDYWGQGTLVTVSS
VL: DIQMTQSPSSLSASVGDRVTITCQASQDIGNYLNWYQQKPGKAPKLLIYGASNLETGVPSRFSGSGSGTDFTLTISSLQPEDFATYYCQQGYSFPLTFGQGTKVEIK
Regarding B13, the binding entry is recorded as “binds”.

B14: GITR-Mab-14 scFv (scFv, V domains shown)
VH: EVQLLESGGGLVKPGGSLRLSCAASGFRFSVYWMSWVRQAPGKGLEWVSGISGSGGTTYYADSVKGRFTISRDDSKNTLYLQMNSLKTEDTAVYYCARVRRDGYNYNFDYWGQGTLVTVSS
VL: DIQMTQSPSSLSASVGDRVTITCQASQDISNYLNWYQQKPGKAPKLLIFDASSLEAGVPSRFSGSGSGTDFTLTISSLQPEDFATYYCQQANSFPPTFGQGTEVEIK
As for B14, the binding result was “binds”.
